Laboratory results published in publication doi:10.1101/2025.03.03.641315.
These are yes or no findings as the source states them, for the method shown. Binding seen in cells or lysates may run through a third protein. Here binding means that the protein was enriched with, or labelled near, the bait; the list need not be complete. A no says only that the protein was not detected with the bait. Where a sequence is shown, tags or fusion partners need not be part of it.

T1: GFP-TBC1D19 (stably expressed in RPE-1 cells) (UniProt Q8N5T2)
T1 sequence: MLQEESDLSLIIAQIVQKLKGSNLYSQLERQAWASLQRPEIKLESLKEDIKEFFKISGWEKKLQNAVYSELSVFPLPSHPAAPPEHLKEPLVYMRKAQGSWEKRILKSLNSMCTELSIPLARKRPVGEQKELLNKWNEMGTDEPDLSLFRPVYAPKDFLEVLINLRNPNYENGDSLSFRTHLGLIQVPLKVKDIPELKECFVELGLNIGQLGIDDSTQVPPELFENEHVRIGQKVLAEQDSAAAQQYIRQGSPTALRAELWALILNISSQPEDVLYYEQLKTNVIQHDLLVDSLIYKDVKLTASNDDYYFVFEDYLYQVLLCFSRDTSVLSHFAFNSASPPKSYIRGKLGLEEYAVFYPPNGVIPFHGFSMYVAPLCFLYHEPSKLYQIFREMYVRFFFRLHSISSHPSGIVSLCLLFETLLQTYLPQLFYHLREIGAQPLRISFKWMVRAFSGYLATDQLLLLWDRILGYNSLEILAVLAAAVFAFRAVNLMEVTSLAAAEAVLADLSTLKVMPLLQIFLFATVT

B1: TPGS2 (protein, UniProt Q68CL5 1-300)
chain: MEEEASSPGLGCSKPHLEKLTLGITRILESSPGVTEVTIIEKPPAERHMISSWEQKNNCVMPEDVKNFYLMTNGFHMTWSVKLDEHIIPLGSMAINSISKLTQLTQSSMYSLPNAPTLADLEDDTHEASDDQPEKPHFDSRSVIFELDSCNGSGKVCLVYKSGKPALAEDTEIWFLDRALYWHFLTDTFTAYYRLLITHLGLPQWQYAFTSYGISPQAKQWFSMYKPITYNTNLLTEETDSFVNKLDPSKVFKSKNKIVIPKKKGPVQPAGGQKGPSGPSGPSTSSTSKSSSGSGNPTRK
B2: TPGS1 (protein, UniProt Q6ZTW0 1-290)
chain: MAAVEKRRQAVPPPAGFTDSGRQSVSRAAGAAESEEDFLRQVGVTEMLRAALLKVLEARPEEPIAFLAHYFENMGLRSPVNGGAGEPPGQLLLQQQRLGRALWHLRLAHHSQRAAFNNNVSVAYECLSAGGRRKRPGLDGRTYSELLRRICRDGQAPEEVVAPLLRKVQCRDHEAVPLSVFRAGTLTCFVLLEFVARAGALFQLLEDSAAAVADRRVGQAVLDTLEGALQASDAAAPARFLEAGSRLGPDSLALALDRAVGGRRPSAPMTREEFLERAAALFIAKVKPVG
B3: C11orf49/CSTPP1 (protein, UniProt Q9H6J7 1-331)
chain: MLSPERLALPDYEYLAQRHVLTYMEDAVCQLLENREDISQYGIARFFTEYFNSVCQGTHILFREFSFVQATPHNRVSFLRAFWRCFRTVGKNGDLLTMKEYHCLLQLLCPDFPLELTQKAARIVLMDDAMDCLMSFSDFLFAFQIQFYYSEFLDSVAAIYEDLLSGKNPNTVIVPTSSSGQHRQRPALGGAGTLEGVEASLFYQCLENLCDRHKYSCPPPALVKEALSNVQRLTFYGFLMALSKHRGINQALGALPDKGDLMHDPAMDEELERLLAQVPGLVNSVTASPEASCLPSRTPPRVGSPWRPLHHSRKVDGESDGSTEETDESET
B4: NICN1 (protein, UniProt Q9BSH3 1-213)
chain: MSRVLVPCHVKGSVALQVGDVRTSQGRPGVLVIDVTFPSVAPFELQEITFKNYYTAFLSIRVRQYTSAHTPAKWVTCLRDYCLMPDPHSEEGAQEYVSLFKHQMLCDMARISELRLILRQPSPLWLSFTVEELQIYQQGPKSPSVTFPKWLSHPVPCEQPALLREGLPDPSRVSSEVQQMWALTEMIRASHTSARIGRFDVDGCYDLNLLSYT
B5: LRRC49/CSTPP2 (protein, UniProt Q8IUZ0 1-686)
chain: MIPGKYRSVSGRAANNVNCGLHLVIQTSSLPEKNKVEFKLNKDTSSFPGRLLQHDLERNYSSRQGDHINLVSSSLSSFPILQRSSEEKILYSDRLSLERQKLTVCPIINGEDHLRLLNFQHNFITRIQNISNLQKLISLDLYDNQIEEISGLSTLRCLRVLLLGKNRIKKISNLENLKSLDVLDLHGNQITKIENINHLCELRVLNLARNFLSHVDNLNGLDSLTELNLRHNQITFVRDVDNLPCLQHLFLSFNNISSFDSVSCLADSSSLSDITFDGNPIAQESWYKHTVLQNMMQLRQLDMKRITEEERRMASVLAKKEEEKKRESHKQSLLKEKKRLTINNVARQWDLQQQRVANIATNEDRKDSDSPQDPCQIDGSTLSAFPEETGPLDSGLNNALQGLSVIDTYLVEVDGDTLSLYGSGALESLDRNWSVQTAGMITTVSFTFIEFDEIVQVLPKLKIKFPNSLHLKFKETNLVMLQQFNALAQLRRIDQLTIDPQGNPVVNFTLWKYYVLFRLSHFSMQKINGTEVTQNDMIMAERLFGILAHVASSELPQYRLISILGDARKKQFRYLLESKGKKPGIINEENNDSKRLVGENTNRATLNYTTRDFYNEKLEEIKEKKKFCKTYIEDLVKEATEINMKNEALQKLWPQMFIELVRDAVIEIRNKNSYMKLCLQQITDQK

Target: T1, GFP-TBC1D19 (stably expressed in RPE-1 cells)
Test: affinity purification with mass spectrometry

Row | Molecule | binding
1 | TTLL1 (from UniProt O95922 1-423) | binds
2 | B1 | no binding
3 | B2 | binds
4 | B3 | binds
5 | B4 | binds
6 | B5 | binds
